Measurements: US20090317476A1, “COMBINATION OF DEHYDROEPIANDROSTERONE OR DEHYDROEPIANDROSTERONE-SULFATE WITH A LEUKOTRIENE RECEPTOR ANTAGONIST FOR TREATMENT OF ASTHMA OR CHRONIC OBSTRUCTIVE PULMONARY DISEASE” (priority 2003, published 2009)

Assay: Aerosolization with single-dose Acu-Breathe device, fine particle fraction
Conditions: IDL data; 30 L/min; result set to zero

In the case of `C[C@]12CC[C@H](OS(=O)(=O)[O-])CC1=CC[C@@H]1[C@@H]2CC[C@]2(C)C(=O)CC[C@@H]12.[Na+]` [Anhydrous DHEA-S], the Fine particle fraction is reported as “no detectable mass entered the impactor”.
